According to patent EP0077028B1 (Merck & Co., Inc., priority 1981, dated 1987):

Assay: general procedure: Boc solid-phase peptide synthesis
Conditions: whole synthesis, TLC

## N-Isovaleryl-L-histidyl-L-prolyl-L-phenylalanyl-L-histidyl-(3S,4S)-statyl-L-leucyl-L-phenylalanine amide
  final HPLC purity: Greater than 99%
